Experimental data as given in patent USRE37534E1, “Pharmaceutical compositions” (BTG International Limited, priority 1982, dated 2002).

Test system: erythrocyte ghosts
Experiment: 59Fe associated with erythrocyte ghosts after lysis
Assay type: cell-based, human

For `Cc1occc(=O)c1[O-].Cc1occc(=O)c1[O-].Cc1occc(=O)c1[O-].[Fe+3]` [Fe^III (maltol)3], the “Iron associated with ghosts (%), Triton lysis” value (lysis by 10% v/v Triton X100) was under 1% and the “Iron associated with ghosts (%), Hypotonic lysis” value (lysis by 10 fold excess of water) was under 5%.
